The record followed here is PMC5955111.

Chains of the proteins cited; added tags and fusions are not shown. Lines headed by an entry give the natural chain unless they say otherwise; changes in a name come on top.
UniProt P67809: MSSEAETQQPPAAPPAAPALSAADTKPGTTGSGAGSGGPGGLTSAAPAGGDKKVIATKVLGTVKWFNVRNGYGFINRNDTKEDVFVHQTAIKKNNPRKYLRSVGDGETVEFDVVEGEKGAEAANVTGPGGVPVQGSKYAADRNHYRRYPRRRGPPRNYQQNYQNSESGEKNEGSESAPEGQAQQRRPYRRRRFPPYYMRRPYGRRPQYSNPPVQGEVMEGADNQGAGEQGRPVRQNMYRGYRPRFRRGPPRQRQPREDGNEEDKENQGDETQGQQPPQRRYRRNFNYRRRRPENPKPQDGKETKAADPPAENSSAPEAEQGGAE
UniProt P09874, whole entry: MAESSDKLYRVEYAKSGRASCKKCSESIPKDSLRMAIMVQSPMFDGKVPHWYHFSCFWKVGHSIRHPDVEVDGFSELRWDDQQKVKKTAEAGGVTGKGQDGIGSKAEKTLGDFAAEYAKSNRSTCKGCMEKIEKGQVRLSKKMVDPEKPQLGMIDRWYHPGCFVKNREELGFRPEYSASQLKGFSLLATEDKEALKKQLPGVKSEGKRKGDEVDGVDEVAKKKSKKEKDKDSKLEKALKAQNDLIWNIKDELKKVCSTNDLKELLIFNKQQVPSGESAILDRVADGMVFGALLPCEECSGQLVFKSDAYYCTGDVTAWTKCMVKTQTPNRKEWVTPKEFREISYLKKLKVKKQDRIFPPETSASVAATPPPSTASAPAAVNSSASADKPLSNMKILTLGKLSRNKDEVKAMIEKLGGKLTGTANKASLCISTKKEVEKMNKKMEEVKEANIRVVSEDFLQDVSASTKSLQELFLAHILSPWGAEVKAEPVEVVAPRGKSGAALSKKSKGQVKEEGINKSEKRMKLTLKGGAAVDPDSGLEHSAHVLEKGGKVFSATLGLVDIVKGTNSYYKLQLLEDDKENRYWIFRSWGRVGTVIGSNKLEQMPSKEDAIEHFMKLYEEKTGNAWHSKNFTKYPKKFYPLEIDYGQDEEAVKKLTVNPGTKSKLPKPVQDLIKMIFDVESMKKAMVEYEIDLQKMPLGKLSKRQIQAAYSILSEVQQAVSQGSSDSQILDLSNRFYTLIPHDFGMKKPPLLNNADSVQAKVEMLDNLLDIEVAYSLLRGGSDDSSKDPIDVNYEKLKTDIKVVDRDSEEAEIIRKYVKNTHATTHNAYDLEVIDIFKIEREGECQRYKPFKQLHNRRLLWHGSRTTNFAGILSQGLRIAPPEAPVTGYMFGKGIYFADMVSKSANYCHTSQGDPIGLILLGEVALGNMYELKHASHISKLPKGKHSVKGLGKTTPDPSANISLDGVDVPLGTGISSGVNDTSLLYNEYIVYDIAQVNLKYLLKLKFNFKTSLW

Data set [1] deals with YB-1 (human) (UniProt P67809). The data set is described as follows: EMSA. The note with it: no PARP1, 0-400 nM YB-1; EMSA: 37 C 10 min, 7.6% native PAGE in 25 mM Tris-borate pH 8.3 at 4 C; DNA 100 nM (anisotropy), 40 nM in Methods vs 100 nM in Figure 1B legend (EMSA); recombinant protein; protein details: His-tag; label: 3'-FAM on ODN1, for gel shift ODN1 also 5'-32P.
In data set [2] the test system is YB-1 + PARP1. As to the kind of experiment: EMSA. The conditions noted are these: after NAD+ (PARylation), free DNA accumulates with time; EMSA: 37 C 10 min, 7.6% native PAGE in 25 mM Tris-borate pH 8.3 at 4 C; DNA 100 nM (anisotropy), 40 nM in Methods vs 100 nM in Figure 1B legend (EMSA); recombinant protein; protein details: His-tag; label: 3'-FAM on ODN1, for gel shift ODN1 also 5'-32P. Background: In EMSA bound probe runs differently from free probe, usually more slowly.

The target of data set [3] is YB-1 (human) (UniProt P67809). As to the kind of experiment: fluorescence anisotropy. The conditions noted are these: 500 uM NAD+ without PARP1, PARP1 needed for DNA release; anisotropy at 25 C; recombinant protein; protein details: His-tag; label: 3'-FAM on ODN1, for gel shift ODN1 also 5'-32P. A general note: In fluorescence polarisation assays a small probe gives low polarisation when free and higher when bound to something large.

Data set [4] has as its target PARP1 (human) (UniProt P09874). As to the kind of experiment: fluorescence anisotropy. The conditions noted are these: anisotropy at 25 C, recombinant protein, label: 3'-FAM on ODN1, for gel shift ODN1 also 5'-32P.
In data set [5] the test system is YB-1 + PARP1. As to the kind of experiment: fluorescence anisotropy. The conditions noted are these: 500 uM NAD+, PARylation releases DNA, lag at high YB-1; anisotropy at 25 C; recombinant protein; protein details: His-tag; label: 3'-FAM on ODN1, for gel shift ODN1 also 5'-32P.

The exact form of at least one protein or probe is not confirmed. For part of these data: The comparison behind a weaker result is the experiment's own reference, which may not be listed here. For part of these data: At least one verdict rests on a figure or table, not on a statement of the authors.

Consider “GGAAGACCCTGACGTTTCCCAACTTTATCGCC / GGCGATAAAGTTGGG / AAACGTCAGGGTCTTCC [Nick (ODN1+ODN2+ODN3)]”, for which the binding result in data set [1] is given as “binds”; in data set [2], “binds more weakly”; in data set [3], “binds”; in data set [4] (poly(ADP-ribosyl)ated PARP1 (NAD+ added), DNA released) it was “binds more weakly”; in data set [4] (unmodified PARP1, no NAD+), “binds”; in data set [5] it was “binds more weakly”.
